Data from article PMC11603163.
Results are given in words; binding and its absence hold for the method and conditions named. Binding seen in cells or lysates may run through a third protein. These calls come from enrichment with a bait or labelling near it, and not all partners need be listed. For part of these data: A no says only that the protein was not detected with the bait. For part of these data: Where a sequence is shown, tags or fusion partners need not be part of it.

By UniProt entry, the sequences of proteins in these tests, tags left out.
UniProt Q9LQ02: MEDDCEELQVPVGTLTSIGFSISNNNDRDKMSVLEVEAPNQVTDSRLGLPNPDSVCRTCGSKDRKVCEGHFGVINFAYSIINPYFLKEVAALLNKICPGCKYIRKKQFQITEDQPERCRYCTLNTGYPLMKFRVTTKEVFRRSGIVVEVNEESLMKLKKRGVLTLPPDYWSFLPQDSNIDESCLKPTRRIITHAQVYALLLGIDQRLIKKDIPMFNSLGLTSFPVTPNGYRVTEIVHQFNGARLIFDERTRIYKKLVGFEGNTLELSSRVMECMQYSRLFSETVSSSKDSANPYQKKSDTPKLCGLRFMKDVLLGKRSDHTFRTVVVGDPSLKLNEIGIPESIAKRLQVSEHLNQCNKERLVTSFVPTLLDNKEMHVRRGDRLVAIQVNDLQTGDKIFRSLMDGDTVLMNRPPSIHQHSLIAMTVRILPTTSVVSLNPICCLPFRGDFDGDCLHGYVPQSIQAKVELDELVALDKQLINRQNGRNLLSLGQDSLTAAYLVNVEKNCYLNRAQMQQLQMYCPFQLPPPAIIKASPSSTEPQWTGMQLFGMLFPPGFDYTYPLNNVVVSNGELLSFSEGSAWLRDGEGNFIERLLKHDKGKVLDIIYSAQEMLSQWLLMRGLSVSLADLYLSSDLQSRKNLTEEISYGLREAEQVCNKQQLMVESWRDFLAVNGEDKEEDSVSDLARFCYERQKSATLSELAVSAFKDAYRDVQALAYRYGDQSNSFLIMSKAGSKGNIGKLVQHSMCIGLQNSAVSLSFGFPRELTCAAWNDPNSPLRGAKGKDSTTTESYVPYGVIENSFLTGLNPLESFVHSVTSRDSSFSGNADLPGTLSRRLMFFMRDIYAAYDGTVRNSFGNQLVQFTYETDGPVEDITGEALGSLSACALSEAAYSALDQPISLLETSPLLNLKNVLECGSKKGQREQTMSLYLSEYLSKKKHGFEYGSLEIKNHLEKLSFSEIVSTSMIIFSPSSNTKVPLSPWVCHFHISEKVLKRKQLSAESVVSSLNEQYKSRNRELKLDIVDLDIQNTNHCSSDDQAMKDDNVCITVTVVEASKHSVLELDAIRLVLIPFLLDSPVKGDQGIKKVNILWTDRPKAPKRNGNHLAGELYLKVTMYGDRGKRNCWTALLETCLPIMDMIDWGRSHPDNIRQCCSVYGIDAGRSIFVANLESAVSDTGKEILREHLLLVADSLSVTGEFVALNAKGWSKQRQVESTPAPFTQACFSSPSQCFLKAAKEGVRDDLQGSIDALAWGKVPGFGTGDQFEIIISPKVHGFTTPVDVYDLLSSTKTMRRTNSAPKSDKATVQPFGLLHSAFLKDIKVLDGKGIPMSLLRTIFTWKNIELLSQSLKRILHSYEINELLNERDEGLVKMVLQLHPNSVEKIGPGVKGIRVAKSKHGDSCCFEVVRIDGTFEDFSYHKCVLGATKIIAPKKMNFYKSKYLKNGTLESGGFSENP

Assays:
[1] = target: T1, 3xF-tagged CLSY3 (Arabidopsis) (UniProt F4I8S3); experiment: affinity purification with mass spectrometry; anti-Flag M2 magnetic beads on 10 g flowers of 3xF-tagged CLSY lines in their clsy mutant backgrounds; elution with 3x-FLAG peptide; compared to non-transgenic wild-type controls
T1 sequence: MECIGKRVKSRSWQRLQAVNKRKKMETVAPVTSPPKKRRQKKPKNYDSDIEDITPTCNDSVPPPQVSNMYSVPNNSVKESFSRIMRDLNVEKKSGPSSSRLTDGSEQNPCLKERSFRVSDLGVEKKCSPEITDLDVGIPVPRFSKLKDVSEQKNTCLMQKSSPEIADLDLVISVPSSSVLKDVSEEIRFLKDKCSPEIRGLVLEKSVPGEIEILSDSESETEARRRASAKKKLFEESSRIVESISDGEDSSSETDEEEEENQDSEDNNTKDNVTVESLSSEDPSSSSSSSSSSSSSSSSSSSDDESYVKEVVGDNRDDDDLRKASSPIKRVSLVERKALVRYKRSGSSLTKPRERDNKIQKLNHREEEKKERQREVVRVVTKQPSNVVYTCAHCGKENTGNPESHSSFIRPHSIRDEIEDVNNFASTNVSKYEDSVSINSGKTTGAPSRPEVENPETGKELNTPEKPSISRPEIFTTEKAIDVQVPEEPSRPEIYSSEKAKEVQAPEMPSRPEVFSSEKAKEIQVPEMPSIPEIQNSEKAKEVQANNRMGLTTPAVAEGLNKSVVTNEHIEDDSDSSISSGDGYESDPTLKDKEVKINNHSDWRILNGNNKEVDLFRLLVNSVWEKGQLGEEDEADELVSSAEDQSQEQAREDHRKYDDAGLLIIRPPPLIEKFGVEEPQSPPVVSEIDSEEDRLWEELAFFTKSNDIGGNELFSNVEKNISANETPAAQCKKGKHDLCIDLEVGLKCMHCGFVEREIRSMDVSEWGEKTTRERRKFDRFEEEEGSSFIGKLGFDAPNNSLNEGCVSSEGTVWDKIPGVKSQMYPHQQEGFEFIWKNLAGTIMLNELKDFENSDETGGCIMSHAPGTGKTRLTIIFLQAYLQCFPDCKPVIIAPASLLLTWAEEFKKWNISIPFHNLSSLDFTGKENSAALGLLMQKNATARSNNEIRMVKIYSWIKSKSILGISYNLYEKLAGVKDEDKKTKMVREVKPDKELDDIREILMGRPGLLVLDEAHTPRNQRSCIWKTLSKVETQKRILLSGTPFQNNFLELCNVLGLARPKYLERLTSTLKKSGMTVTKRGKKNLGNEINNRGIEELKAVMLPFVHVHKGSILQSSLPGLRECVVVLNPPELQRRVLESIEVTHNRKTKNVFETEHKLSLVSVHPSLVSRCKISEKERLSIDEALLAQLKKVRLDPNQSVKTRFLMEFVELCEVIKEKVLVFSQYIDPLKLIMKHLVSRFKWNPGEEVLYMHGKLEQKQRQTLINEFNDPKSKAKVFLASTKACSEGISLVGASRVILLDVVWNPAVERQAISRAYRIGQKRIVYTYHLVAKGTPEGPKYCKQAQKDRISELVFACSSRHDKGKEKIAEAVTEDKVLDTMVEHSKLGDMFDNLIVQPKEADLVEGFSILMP

[2] = target: T2, 3xF-tagged CLSY4 (Arabidopsis) (UniProt Q9LK10); experiment: as above
T2 sequence: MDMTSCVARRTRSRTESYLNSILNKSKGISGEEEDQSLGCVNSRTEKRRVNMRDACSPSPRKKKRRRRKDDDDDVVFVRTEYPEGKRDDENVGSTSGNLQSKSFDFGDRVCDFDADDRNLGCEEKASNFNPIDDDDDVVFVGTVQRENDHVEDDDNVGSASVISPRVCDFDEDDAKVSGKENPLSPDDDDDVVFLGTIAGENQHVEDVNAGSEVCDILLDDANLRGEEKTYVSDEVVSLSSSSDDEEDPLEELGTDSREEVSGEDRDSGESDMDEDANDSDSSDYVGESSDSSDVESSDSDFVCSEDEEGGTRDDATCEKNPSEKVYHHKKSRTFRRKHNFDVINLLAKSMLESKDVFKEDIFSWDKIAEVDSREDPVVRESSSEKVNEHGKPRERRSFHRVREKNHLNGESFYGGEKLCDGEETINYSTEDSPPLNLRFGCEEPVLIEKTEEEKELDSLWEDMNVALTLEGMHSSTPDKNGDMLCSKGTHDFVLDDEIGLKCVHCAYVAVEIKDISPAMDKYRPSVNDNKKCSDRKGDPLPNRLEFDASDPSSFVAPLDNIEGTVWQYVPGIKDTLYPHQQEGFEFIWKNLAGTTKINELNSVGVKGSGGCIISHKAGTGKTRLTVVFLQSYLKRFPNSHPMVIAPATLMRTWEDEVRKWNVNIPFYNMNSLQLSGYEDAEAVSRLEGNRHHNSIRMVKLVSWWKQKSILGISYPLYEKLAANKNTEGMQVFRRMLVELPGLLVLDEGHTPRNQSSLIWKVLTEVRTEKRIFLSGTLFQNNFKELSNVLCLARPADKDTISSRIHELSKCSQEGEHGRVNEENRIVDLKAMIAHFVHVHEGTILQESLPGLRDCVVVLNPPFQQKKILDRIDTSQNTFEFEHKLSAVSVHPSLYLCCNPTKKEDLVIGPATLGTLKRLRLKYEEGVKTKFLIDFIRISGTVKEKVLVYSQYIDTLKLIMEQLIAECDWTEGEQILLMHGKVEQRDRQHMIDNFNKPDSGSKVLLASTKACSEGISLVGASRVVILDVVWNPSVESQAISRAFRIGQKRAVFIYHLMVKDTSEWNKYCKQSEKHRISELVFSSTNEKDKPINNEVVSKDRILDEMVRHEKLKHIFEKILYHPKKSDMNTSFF

[3] = target: NRPD1-3xFWT (Arabidopsis) (UniProt Q9LQ02); experiment: affinity purification with mass spectrometry; anti-FLAG magnetic beads (uMACS DYKDDDK kit) on flower extracts of nrpd1-3 T2 lines with NRPD1-3xF WT, AAA-YPMF or CYC-AAAA; three lines, two replicates each; LC-MS/MS spectral counts

- binding [1]: no binding
- binding [2]: no binding
- binding [3]: binds
B1: CLASSY 1 (CLSY1) (protein, UniProt Q9M297 1-1256)
chain: MKRKHYFEFNHPFNPCPFEVFCWGTWKAVEYLRIENGTMTMRLLENGQVLDDIKPFQRLRIRSRKATLIDCTSFLRPGIDVCVLYQRDEETPEPVWVDARVLSIERKPHESECLCTFHVSVYIDQGCIGLEKHRMNKVPVLVGLNEIAILQKFCKEQSLDRYYRWRYSEDCSSLVKTRLNLGKFLPDLTWLLVTSVLKNIVFQIRTVHEKMVYQIVTDEDCEGSSSSLSAMNITVEDGVVMSKVVLFNPAEDTCQDSDVKEEIEEEVMELRRSKRRSGRPERYGDSEIQPDSKDGWVRMMPYRYNIWNVSSDDDDEEEDCEDDKDTDDDLYLPLSHLLRKKGSKKGFSKDKQREIVLVDKTERKKRKKTEGFSRSCELSVIPFTPVFEPIPLEQFGLNANSLCGGVSGNLMDEIDKYRSKAAKYGKKKKKKIEMEEMESDLGWNGPIGNVVHKRNGPHSRIRSVSRETGVSEEPQIYKKRTLSAGAYNKLIDSYMSRIDSTIAAKDKATNVVEQWQGLKNPASFSIEAEERLSEEEEDDGETSENEILWREMELCLASSYILDDHEVRVDNEAFHKATCDCEHDYELNEEIGMCCRLCGHVGTEIKHVSAPFARHKKWTTETKQINEDDINTTIVNQDGVESHTFTIPVASSDMPSAEESDNVWSLIPQLKRKLHLHQKKAFEFLWKNLAGSVVPAMMDPSSDKIGGCVVSHTPGAGKTFLIIAFLASYLKIFPGKRPLVLAPKTTLYTWYKEFIKWEIPVPVHLLHGRRTYCMSKEKTIQFEGIPKPSQDVMHVLDCLDKIQKWHAQPSVLVMGYTSFLTLMREDSKFAHRKYMAKVLRESPGLLVLDEGHNPRSTKSRLRKALMKVDTDLRILLSGTLFQNNFCEYFNTLCLARPKFVHEVLVELDKKFQTNQAEQKAPHLLENRARKFFLDIIAKKIDTKVGDERLQGLNMLRNMTSGFIDNYEGSGSGSGDVLPGLQIYTLLMNSTDVQHKSLTKLQNIMSTYHGYPLELELLITLAAIHPWLVKTTTCCAKFFNPQELLEIEKLKHDAKKGSKVMFVLNLVFRVVKREKILIFCHNIAPIRLFLELFENVFRWKRGRELLTLTGDLELFERGRVIDKFEEPGGQSRVLLASITACAEGISLTAASRVIMLDSEWNPSKTKQAIARAFRPGQQKVVYVYQLLSRGTLEEDKYRRTTWKEWVSSMIFSEEFVEDPSQWQAEKIEDDVLREIVEEDKVKSFHMIMKNEKASTGG
